Measured values from the supplement of paper PMC10849652.
This is one part of the list.

The chains behind the UniProt entries cited, without tags or fusion partners. Where a name states a change or a piece, a line headed by the entry shows the natural chain unless it says otherwise.
UniProt Q8IYK4: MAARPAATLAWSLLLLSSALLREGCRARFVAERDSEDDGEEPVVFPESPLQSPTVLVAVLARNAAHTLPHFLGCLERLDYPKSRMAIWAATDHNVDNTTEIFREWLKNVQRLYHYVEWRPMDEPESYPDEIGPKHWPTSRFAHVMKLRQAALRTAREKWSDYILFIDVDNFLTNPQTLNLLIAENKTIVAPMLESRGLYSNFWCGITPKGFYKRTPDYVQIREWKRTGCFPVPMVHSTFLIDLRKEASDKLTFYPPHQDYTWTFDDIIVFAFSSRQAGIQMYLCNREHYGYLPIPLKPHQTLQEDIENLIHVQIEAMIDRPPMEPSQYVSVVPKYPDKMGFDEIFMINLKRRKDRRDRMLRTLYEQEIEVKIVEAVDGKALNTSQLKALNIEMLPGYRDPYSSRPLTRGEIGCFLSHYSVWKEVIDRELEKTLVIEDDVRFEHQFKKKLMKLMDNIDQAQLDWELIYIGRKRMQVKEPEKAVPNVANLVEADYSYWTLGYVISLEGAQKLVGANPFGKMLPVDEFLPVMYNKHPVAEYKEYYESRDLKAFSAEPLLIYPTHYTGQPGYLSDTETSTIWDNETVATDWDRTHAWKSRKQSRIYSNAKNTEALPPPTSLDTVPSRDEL
UniProt Q8N9A8: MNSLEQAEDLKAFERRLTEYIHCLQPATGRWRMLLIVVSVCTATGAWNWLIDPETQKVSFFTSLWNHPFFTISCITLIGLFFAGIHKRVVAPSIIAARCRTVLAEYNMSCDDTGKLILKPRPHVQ
UniProt P62633: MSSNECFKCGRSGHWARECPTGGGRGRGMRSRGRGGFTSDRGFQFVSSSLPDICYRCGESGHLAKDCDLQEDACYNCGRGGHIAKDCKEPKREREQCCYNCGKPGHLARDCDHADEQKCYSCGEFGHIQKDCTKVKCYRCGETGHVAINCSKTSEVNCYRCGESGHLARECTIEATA
UniProt Q8N129: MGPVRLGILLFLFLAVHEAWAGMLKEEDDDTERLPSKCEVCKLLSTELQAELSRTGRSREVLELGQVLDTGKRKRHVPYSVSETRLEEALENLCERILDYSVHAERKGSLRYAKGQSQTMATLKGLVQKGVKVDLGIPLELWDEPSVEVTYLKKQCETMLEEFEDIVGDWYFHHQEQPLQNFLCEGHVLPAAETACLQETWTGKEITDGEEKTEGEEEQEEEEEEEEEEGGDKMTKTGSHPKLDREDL
UniProt Q9P2I0: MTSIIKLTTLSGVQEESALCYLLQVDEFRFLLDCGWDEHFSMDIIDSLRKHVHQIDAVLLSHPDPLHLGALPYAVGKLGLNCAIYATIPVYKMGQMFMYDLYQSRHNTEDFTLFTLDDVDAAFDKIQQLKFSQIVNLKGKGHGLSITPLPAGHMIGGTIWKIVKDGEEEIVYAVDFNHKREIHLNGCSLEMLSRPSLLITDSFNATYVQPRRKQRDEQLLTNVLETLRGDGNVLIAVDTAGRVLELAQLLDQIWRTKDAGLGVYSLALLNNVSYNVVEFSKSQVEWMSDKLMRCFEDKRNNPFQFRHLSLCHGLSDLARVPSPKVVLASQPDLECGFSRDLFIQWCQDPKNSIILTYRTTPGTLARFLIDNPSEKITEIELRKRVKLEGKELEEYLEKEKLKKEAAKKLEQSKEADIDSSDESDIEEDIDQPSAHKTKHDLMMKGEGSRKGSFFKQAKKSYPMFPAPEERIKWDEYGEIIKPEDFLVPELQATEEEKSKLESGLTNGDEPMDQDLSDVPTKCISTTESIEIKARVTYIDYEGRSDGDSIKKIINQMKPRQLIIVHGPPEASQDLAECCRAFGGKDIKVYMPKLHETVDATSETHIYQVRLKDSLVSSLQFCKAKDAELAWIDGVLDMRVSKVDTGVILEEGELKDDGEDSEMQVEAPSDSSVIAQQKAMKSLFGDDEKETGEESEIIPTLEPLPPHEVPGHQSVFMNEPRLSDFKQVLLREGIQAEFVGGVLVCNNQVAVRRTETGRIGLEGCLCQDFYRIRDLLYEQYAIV
UniProt P36551: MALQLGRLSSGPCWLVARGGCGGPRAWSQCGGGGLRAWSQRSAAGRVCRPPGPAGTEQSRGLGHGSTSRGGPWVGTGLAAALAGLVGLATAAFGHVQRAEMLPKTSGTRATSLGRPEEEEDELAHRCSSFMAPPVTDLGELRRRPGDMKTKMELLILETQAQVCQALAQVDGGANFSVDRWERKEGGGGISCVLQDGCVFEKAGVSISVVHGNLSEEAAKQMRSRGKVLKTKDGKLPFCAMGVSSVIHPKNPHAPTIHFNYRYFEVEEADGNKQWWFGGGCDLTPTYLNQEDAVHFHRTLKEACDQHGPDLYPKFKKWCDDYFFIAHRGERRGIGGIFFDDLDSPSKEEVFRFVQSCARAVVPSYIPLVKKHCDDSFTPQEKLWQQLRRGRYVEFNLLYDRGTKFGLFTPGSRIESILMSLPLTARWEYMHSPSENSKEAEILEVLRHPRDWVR
UniProt Q99627: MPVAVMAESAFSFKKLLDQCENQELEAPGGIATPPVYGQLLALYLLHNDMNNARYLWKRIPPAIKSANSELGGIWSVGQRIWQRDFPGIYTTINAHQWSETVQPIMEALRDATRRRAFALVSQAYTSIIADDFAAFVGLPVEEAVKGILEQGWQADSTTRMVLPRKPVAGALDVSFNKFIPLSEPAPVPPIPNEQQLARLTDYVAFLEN
UniProt Q96F85: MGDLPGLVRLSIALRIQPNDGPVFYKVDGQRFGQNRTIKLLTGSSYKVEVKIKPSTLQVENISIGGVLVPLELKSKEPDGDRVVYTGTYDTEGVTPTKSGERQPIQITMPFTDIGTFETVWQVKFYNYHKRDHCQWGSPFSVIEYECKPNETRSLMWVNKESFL
UniProt P09669, whole entry, looked up: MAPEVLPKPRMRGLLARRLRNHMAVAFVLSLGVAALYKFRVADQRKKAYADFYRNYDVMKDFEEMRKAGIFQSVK
UniProt O95628: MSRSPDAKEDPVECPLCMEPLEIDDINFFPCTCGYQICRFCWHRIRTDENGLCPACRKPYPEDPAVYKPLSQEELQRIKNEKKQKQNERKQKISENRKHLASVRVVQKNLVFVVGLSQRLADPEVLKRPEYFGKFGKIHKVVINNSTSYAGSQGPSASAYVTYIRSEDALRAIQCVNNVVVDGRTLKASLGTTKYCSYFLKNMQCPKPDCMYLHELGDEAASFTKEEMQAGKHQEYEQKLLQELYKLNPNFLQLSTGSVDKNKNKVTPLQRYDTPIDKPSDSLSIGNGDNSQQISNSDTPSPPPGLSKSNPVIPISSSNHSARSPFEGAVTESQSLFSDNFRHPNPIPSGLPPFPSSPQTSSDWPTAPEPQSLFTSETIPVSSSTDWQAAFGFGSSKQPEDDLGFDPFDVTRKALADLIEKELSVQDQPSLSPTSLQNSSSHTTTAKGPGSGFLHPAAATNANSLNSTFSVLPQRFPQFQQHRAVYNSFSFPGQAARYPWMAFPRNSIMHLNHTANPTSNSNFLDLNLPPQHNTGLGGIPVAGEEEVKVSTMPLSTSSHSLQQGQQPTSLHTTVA
UniProt Q8N684: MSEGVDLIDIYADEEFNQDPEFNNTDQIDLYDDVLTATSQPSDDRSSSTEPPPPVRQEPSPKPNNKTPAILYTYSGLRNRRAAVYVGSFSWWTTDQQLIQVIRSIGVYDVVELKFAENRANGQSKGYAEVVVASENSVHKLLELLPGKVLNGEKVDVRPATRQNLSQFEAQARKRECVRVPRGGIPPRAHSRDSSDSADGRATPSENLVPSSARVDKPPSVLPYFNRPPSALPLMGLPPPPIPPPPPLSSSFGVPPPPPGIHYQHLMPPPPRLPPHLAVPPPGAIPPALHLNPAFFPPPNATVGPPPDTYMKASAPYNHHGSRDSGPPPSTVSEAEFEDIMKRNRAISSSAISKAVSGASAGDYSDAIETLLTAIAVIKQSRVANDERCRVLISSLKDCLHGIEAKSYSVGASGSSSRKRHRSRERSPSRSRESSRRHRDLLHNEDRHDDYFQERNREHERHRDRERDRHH
UniProt O14548: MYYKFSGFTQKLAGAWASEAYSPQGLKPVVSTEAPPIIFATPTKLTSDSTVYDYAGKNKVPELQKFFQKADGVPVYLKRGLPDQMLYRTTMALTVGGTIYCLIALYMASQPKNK
UniProt Q9BXS0: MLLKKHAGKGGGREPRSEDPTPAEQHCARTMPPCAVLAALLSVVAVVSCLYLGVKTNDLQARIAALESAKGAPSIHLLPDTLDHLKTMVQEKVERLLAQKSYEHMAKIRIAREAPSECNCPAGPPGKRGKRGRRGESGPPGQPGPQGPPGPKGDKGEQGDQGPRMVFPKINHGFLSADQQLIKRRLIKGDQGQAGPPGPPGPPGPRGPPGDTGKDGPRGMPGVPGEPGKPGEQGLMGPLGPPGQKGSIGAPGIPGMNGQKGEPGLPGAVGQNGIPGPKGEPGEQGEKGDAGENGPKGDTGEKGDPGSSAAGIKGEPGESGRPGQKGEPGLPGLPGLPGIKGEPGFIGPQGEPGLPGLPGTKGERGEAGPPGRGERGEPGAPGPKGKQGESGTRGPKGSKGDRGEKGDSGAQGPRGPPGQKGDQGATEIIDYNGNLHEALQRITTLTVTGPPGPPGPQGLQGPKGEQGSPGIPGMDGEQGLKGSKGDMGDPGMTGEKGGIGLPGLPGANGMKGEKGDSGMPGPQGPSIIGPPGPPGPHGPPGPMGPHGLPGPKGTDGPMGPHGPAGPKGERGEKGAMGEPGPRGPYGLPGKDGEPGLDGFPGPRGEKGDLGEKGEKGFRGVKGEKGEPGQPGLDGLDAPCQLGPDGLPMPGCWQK
UniProt Q7L5N1: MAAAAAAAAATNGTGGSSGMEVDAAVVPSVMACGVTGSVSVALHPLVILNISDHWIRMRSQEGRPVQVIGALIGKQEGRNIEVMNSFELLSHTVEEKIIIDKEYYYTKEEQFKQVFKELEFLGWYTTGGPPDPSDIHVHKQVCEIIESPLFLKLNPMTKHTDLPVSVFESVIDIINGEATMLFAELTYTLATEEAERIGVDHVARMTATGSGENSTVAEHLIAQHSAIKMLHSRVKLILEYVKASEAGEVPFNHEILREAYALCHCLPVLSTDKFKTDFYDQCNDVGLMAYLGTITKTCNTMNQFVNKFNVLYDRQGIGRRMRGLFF
UniProt Q99439: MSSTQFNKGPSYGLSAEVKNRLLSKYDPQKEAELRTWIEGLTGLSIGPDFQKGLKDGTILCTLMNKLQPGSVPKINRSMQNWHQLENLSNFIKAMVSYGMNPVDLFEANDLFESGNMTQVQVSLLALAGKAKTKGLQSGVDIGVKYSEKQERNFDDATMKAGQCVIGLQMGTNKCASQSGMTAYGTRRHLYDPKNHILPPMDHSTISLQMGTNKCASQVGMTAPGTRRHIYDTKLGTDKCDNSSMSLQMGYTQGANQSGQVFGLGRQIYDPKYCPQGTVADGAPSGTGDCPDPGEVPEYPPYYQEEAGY
UniProt Q9H9Q2: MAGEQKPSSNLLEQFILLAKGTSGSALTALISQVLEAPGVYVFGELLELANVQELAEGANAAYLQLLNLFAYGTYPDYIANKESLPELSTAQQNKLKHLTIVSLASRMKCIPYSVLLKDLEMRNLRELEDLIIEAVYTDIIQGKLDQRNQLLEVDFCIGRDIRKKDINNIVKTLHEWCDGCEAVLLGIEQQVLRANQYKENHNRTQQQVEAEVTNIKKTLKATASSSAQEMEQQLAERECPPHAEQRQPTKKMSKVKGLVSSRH
UniProt Q9ULM6, whole entry, looked up: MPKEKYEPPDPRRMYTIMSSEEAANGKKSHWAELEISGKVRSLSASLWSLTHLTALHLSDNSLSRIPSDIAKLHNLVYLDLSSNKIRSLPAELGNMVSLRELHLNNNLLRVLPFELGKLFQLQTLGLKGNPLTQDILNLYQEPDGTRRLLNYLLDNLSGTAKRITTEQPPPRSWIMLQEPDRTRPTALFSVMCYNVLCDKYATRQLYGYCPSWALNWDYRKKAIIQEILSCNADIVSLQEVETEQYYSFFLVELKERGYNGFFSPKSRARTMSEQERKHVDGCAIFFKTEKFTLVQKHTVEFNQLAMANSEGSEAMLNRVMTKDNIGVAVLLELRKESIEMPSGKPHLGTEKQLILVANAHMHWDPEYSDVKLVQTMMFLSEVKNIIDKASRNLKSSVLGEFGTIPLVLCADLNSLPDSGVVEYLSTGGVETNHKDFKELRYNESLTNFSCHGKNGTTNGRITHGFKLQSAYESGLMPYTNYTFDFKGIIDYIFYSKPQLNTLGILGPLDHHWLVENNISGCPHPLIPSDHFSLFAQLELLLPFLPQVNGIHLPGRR
UniProt Q9UBI1, whole entry, looked up: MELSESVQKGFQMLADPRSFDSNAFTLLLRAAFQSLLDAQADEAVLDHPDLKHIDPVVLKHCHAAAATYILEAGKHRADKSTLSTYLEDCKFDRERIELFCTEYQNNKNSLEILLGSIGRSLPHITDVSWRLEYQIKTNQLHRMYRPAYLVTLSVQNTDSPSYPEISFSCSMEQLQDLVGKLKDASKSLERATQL
UniProt Q9BWP8: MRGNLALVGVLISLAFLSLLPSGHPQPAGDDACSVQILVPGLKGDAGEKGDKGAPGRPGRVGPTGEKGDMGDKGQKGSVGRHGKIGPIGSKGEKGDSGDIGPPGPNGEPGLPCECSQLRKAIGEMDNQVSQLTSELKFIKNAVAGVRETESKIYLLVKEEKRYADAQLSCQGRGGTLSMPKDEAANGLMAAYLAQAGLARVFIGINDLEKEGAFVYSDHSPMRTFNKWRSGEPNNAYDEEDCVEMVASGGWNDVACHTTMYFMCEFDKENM

Legend:
Test in all cases: log2 fold change, soluble protein after heating vs DMSO (PISA); higher = thermal stabilisation; K562 lysate, 10 uM; active = over 0.2 and 3.5 SD of the protein, either way, in both replicates (recomputed)
[1] = compound: C1=CC=C(C=C1)[C@H](COC2=CC3=C(C=C2)NC(=O)N3)NC(=O)C4=CC=CN(C4=O)CC5=CC(=C(C=C5)F)F
Outline: (§1)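 Log-two fold change in thermal stability relative to solvent controls is reported from duplicates. For each sample, crude K562 extract from dounce-homogenised pellets in PBS pH 7.4 with 1 mM MgCl2, at 1 mg/mL protein, was treated with 10 μM compound for 30 min. Aliquots heated for 3 min across 48°C-58°C were pooled, brought to 0.5% NP-40 at 4°C and cleared at 21,000xg for 90 min. The supernatant was quantified by TMTpro 16plex LC-MS/MS with channel sums equalised.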

[2] = compound: CC1=C(SC2=C1C(=N[C@H](C3=NN=C(N32)C)CC(=O)N)C4=CC=C(C=C4)Cl)C
Outline: as §1

[3] = compound: CC1=C2C(=CC=C1)N=C(N(C2=O)C3=CC=CC=C3C)CN4C=NC5=C(N=CN=C54)N
Outline: as §1

[4] = compound: Cc1sc2c(c1C)C(c1ccc(Cl)cc1)=N[C@@H](CC(=O)OC(C)(C)C)c1nnc(C)n1-2
Outline: as §1

[5] = compound: c1ccc([C@@H]2C[C@H]2NC2CCNCC2)cc1
Outline: as §1

Measured: log2 fold change

COQ5 (UniProt Q5HYK3)
inactive: [1] 0.074 | [2] 0.007 | [3] -0.027 | [4] -0.092 | [5] 0.027

COLGALT2 (UniProt Q8IYK4)
inactive: [1] 0.017 | [2] 0.019 | [3] 0.039 | [4] 0.029 | [5] 0.03

CNEP1R1 isoform 2 (UniProt Q8N9A8)
inactive: [1] 0.038 | [2] 0.103

CPT1A (UniProt P50416)
inactive: [1] 0.042 | [2] 0.03 | [3] -0.004 | [4] 0.07 | [5] 0.011

COTL1 (UniProt Q14019)
inactive: [1] -0.018 | [2] -0.019 | [3] 0.01 | [4] 0.031 | [5] 0.064

COL18A1 (UniProt P39060)
inactive: [1] 0.018 | [2] 0.052 | [3] 0.017 | [4] -0.052 | [5] 0.034

CNIH4 (UniProt Q9P003)
inactive: [1] -0.355 | [2] -0.301 | [3] -0.017 | [4] 0.11

COPS7A (UniProt Q9UBW8)
inactive: [1] 0.005 | [2] -0.014 | [3] -0.011 | [4] -0.002 | [5] -0.007

CNBP isoform 4 (UniProt P62633)
inactive: [1] 0.065 | [2] -0.031 | [3] -0.009 | [4] -0.035 | [5] -0.002

CNPY4 (UniProt Q8N129)
inactive: [1] -0.019 | [2] 0.071 | [3] 0.039 | [4] -0.028 | [5] -0.052

CPSF2 (UniProt Q9P2I0)
inactive: [1] -0.039 | [2] -0.003 | [3] 0.014 | [4] 0.007 | [5] -0.001

COMTD1 (UniProt Q86VU5)
inactive: [1] -0.1 | [2] 0.123 | [3] 0.045 | [4] 0.022

CRACR2A isoform 2 (UniProt Q9BSW2)
inactive: [1] 0.064 | [2] 0.049 | [3] -0.033 | [4] 0.031 | [5] 0.001

CORO1B (UniProt Q9BR76)
inactive: [1] 0.003 | [2] 0.024 | [3] 0.016 | [4] 0.017 | [5] 0

COMMD10 (UniProt Q9Y6G5)
inactive: [1] 0.023 | [2] -0.043 | [3] -0.071 | [4] -0.03 | [5] 0.02

CPVL (UniProt Q9H3G5)
inactive: [1] -0.048 | [2] -0.029 | [3] 0.001 | [4] -0.293 | [5] -0.107

CNBP (UniProt P62633)
inactive: [1] 0.095 | [2] -0.008

COASY isoform 2 (UniProt Q13057)
inactive: [1] -0.049 | [2] -0.002 | [3] 0.03 | [4] 0.07 | [5] 0.01

CPT2 (UniProt P23786)
inactive: [1] -0.148 | [2] 0.033 | [3] -0.007 | [4] 0.011 | [5] -0.047

CPOX (UniProt P36551)
inactive: [1] 0.037 | [2] -0.019 | [3] -0.014 | [4] 0.034 | [5] -0.038

COA3 (UniProt Q9Y2R0)
inactive: [1] 0.055 | [2] -0.045 | [3] -0.004 | [4] -0.142 | [5] -0.041

COPS8 (UniProt Q99627)
inactive: [1] -0.077 | [2] -0.047 | [3] 0.04 | [4] -0.033 | [5] 0.011

COQ8A (UniProt Q8NI60)
inactive: [1] 0.048 | [2] 0.065 | [3] 0.03 | [4] 0.007 | [5] 0

CPED1 (UniProt A4D0V7)
inactive: [1] -0.051 | [2] 0.078 | [3] 0.053 | [4] 0.058 | [5] 0.052

COMMD5 (UniProt Q9GZQ3)
inactive: [1] 0.001 | [2] -0.004 | [3] 0.065 | [4] -0.017 | [5] 0.013

COMMD2 (UniProt Q86X83)
inactive: [1] 0.087 | [2] -0.001 | [3] 0.005 | [4] 0.022 | [5] 0.054

CNRIP1 (UniProt Q96F85)
inactive: [1] 0.187 | [2] -0.118 | [3] 0.003 | [4] 0.155

CNOT3 (UniProt O75175)
inactive: [1] -0.045 | [2] 0.022 | [3] 0.007 | [4] -0.041 | [5] 0.023

COX6C (UniProt P09669)
inactive: [1] -0.048 | [2] 0.036 | [3] -0.011 | [4] -0.009 | [5] -0.041

COX6B1 (UniProt P14854)
inactive: [1] 0.02 | [2] -0.04 | [3] 0.003 | [4] 0.036 | [5] 0.063

CNOT4 isoform 6 (UniProt O95628)
inactive: [1] -0.042 | [2] -0.02 | [3] -0.028 | [4] 0.051 | [5] -0.004

CPSF7 isoform 3 (UniProt Q8N684)
inactive: [1] -0.063 | [2] 0.045 | [3] -0.021 | [4] 0.03 | [5] 0.045

COX7A2L (UniProt O14548)
inactive: [1] -0.073 | [2] -0.012 | [3] -0.038 | [4] -0.026 | [5] -0.059

CPNE7 (UniProt Q9UBL6)
inactive: [1] 0.003 | [2] 0.013 | [3] 0.088 | [4] -0.093 | [5] -0.008

COL25A1 (UniProt Q9BXS0)
inactive: [1] -0.344 | [2] 0.278

COQ6 (UniProt Q9Y2Z9)
inactive: [1] -0.054 | [2] 0.048 | [3] 0.02 | [4] -0.017 | [5] 0.016

CNOT1 (UniProt A5YKK6)
inactive: [1] -0.026 | [2] 0.015 | [3] 0.034 | [4] 0.004 | [5] 0.01

COPZ1 isoform 4 (UniProt P61923)
inactive: [1] -0.101 | [2] -0.04 | [3] 0.06 | [4] 0.057 | [5] 0.096

COPS6 (UniProt Q7L5N1)
inactive: [1] -0.091 | [2] -0.087 | [3] -0.039 | [4] 0.053 | [5] 0.025

COG8 (UniProt Q96MW5)
inactive: [1] -0.08 | [2] 0.004 | [3] -0.063 | [4] -0.019 | [5] 0.056

CNN2 (UniProt Q99439)
inactive: [1] 0.012 | [2] -0.047 | [3] -0.049 | [4] 0.051 | [5] -0.03

COPS7B (UniProt Q9H9Q2)
inactive: [1] 0.058 | [2] -0.017 | [3] 0 | [4] 0.029 | [5] 0.027

CNOT6 (UniProt Q9ULM6)
inactive: [1] 0.013 | [2] -0.004 | [3] 0.041 | [4] 0.041 | [5] 0.026

COG7 (UniProt P83436)
inactive: [1] -0.026 | [2] 0.026 | [3] 0.01 | [4] -0.034 | [5] 0.012

COPB2 (UniProt P35606)
inactive: [1] -0.018 | [2] 0.004 | [3] -0.019 | [4] -0.013 | [5] -0.025

COMT (UniProt P21964)
inactive: [1] -0.007 | [2] -0.01 | [3] -0.016 | [4] 0.062 | [5] 0.054

Eleven successive entries already listed:
CNBP (UniProt P62633)
inactive: [1] 0.095 | [2] -0.008

COASY isoform 2 (UniProt Q13057)
inactive: [1] -0.049 | [2] -0.002 | [3] 0.03 | [4] 0.07 | [5] 0.01

CPT2 (UniProt P23786)
inactive: [1] -0.148 | [2] 0.033 | [3] -0.007 | [4] 0.011 | [5] -0.047

CPOX (UniProt P36551)
inactive: [1] 0.037 | [2] -0.019 | [3] -0.014 | [4] 0.034 | [5] -0.038

COA3 (UniProt Q9Y2R0)
inactive: [1] 0.055 | [2] -0.045 | [3] -0.004 | [4] -0.142 | [5] -0.041

COPS8 (UniProt Q99627)
inactive: [1] -0.077 | [2] -0.047 | [3] 0.04 | [4] -0.033 | [5] 0.011

COQ8A (UniProt Q8NI60)
inactive: [1] 0.048 | [2] 0.065 | [3] 0.03 | [4] 0.007 | [5] 0

CPED1 (UniProt A4D0V7)
inactive: [1] -0.051 | [2] 0.078 | [3] 0.053 | [4] 0.058 | [5] 0.052

COMMD5 (UniProt Q9GZQ3)
inactive: [1] 0.001 | [2] -0.004 | [3] 0.065 | [4] -0.017 | [5] 0.013

COMMD2 (UniProt Q86X83)
inactive: [1] 0.087 | [2] -0.001 | [3] 0.005 | [4] 0.022 | [5] 0.054

CNRIP1 (UniProt Q96F85)
inactive: [1] 0.187 | [2] -0.118 | [3] 0.003 | [4] 0.155

Following part.

CORO1A (UniProt P31146)
inactive: [1] -0.024 | [2] 0.021 | [3] 0.004 | [4] 0.078 | [5] -0.019

COMMD3 (UniProt Q9UBI1)
inactive: [1] -0.055 | [2] -0.023 | [3] 0.048 | [4] 0.002 | [5] 0.051

COLEC11 isoform 10 (UniProt Q9BWP8)
inactive: [1] 0.023 | [2] 0.125 | [3] -0.048 | [4] -0.019 | [5] -0.022

COPB1 (UniProt P53618)
inactive: [1] -0.014 | [2] 0.01 | [3] 0.015 | [4] -0.015 | [5] -0.037

CPS1 isoform 3 (UniProt P31327)
inactive: [1] -0.001 | [2] 0.014 | [3] 0.059 | [4] -0.154 | [5] -0.065

CORO2A (UniProt Q92828)
inactive: [1] -0.204 | [2] 0.056 | [3] -0.013 | [4] 0.087 | [5] 0.028

CPSF3 (UniProt Q9UKF6)
inactive: [1] -0.026 | [2] -0.036 | [3] 0.008 | [4] 0.019 | [5] 0.026

CNNM4 (UniProt Q6P4Q7)
inactive: [1] 0.065 | [2] 0.134 | [3] 0.052 | [4] 0.009 | [5] -0.037
